Measurements from “University of Dundee, Small-Polar-MMV Screening Library” (2021), ChEMBL document CHEMBL3988442.

Sequences of proteins named here, by UniProt entry; tags and fusion partners are left off.
UniProt E9BF75, entry or part of it: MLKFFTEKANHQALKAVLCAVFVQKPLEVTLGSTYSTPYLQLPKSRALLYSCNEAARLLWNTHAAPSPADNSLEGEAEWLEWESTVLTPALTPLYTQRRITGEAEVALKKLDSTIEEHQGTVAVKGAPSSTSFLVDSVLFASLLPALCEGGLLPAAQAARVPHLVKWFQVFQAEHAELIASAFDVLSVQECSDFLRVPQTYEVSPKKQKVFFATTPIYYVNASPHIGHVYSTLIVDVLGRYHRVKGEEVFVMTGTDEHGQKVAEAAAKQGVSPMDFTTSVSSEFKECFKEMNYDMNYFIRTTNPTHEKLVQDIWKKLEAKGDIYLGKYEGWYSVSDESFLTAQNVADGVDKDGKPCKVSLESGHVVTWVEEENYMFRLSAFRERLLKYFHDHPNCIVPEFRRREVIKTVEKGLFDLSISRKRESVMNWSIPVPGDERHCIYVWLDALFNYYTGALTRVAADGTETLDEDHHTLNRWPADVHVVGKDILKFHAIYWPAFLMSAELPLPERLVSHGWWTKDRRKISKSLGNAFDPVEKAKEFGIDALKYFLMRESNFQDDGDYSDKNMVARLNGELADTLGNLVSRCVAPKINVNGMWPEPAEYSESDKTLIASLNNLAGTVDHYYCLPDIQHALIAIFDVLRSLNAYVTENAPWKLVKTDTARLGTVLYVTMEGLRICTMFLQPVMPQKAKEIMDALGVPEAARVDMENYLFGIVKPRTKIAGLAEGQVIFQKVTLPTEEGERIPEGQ

Mtb heat-shock: 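Assay on Mycobacterium tuberculosis, filed only as a heat shock assay from Cornell; the read-out is not stated. The concentration is filed as 10 mM, unlikely as a test dose, so the dose is not known. The record gives no direction; compounds that gave an IC50 in retests scored well above the rest, so higher reads as stronger inhibition. Size under these conditions: about 69,000 compounds, about 930 of them at 50% or above in at least one test.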
LdMetRS: 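Methionyl-tRNA synthetase (putative), Leishmania donovani (UniProt E9BF75). Primary screen of methionyl-tRNA synthetase; the read-out is not stated. The test concentration is not given. The values are filed as inhibition. Of about 68,000 compounds tested this way, about 24 (0.035%) reached 50% or more in at least one test.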
Mtb growth Cornell: 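Whole-cell assay for inhibitors of Mycobacterium tuberculosis growth, labelled Cornell in the record; the read-out is not stated. The concentration is filed as 10 mM, unlikely as a test dose, so the dose is not known. The record gives no direction; compounds strong in two other growth screens of this library score well above the rest, so higher reads as stronger inhibition. Size under these conditions: about 53,000 compounds, about 900 of them at 50% or above in at least one test.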

Results are percentages, as filed. How 0% and 100% were set is not recorded. Most values in the screen are low, and negative values occur. The compounds are a random part of those screened. A dash means the value is not listed here; it may have been measured.

structure | Mtb heat-shock | LdMetRS | Mtb growth Cornell
CN(C)CC1(O)CCN(C(=O)c2cnc(-c3ccccn3)nc2)C1 (stereo not given) | -8.828% | 5.897% | -7.561%
COc1cccc(C(CO)NC(=O)Cc2cccc(C)c2)c1 (stereo not given) | 0.9093% | 23.12% | -36.46%
CCCOc1ccc(CNC2CCCc3c2cnn3CC)cc1OC (stereo not given) | -8.669% | 11.74% | -14.21%
NC(=O)c1cnn2c1NCC(CNCCc1cccs1)C2 (stereo not given) | -4.587% | 15.85% | -
O=C1CN(Cc2cn(CC3CCCN(C4CCSCC4)C3)nn2)CCN1 (stereo not given) | -24.5% | 2.091% | -
CC(=O)c1cccc(OCCCC(=O)N(C)Cc2ccccn2)c1 | 10.48% | 5.435% | -
NS(=O)(=O)c1ccc(N2CCN(CCCc3cn[nH]c3)CC2)cc1 | -27.15% | 3.107% | -32.06%
CC(C)N1CCCCC1c1cc(CO)[nH]n1 (stereo not given) | 19.71% | 16.46% | 5.089%
CS(=O)(=O)c1snnc1C1CCN(Cc2cccc(O)c2)CC1 | -3.543% | 14.69% | -3.307%
CC(C#N)NS(=O)(=O)c1ccc2c(c1)N(C)CCC2 (stereo not given) | 14.62% | 14.25% | 0.9599%
CCC(=O)NC(CC(C)C)c1cccs1 (stereo not given) | -35.38% | 12.33% | -
CN(Cc1ccc(F)cc1C#N)CC(F)(F)F | -10.96% | 3.073% | -28.77%
Cc1cc(C)cc(NCCC(=O)NC2CCN(C(=O)C3CC3)CC2)c1 | 18.72% | -6.178% | 7.119%
CCO[C@H]1CO[C@@]2(CCN(Cc3ccc4c(c3)OCO4)C2)C1 | - | 14.01% | -
COc1cc(CN2C[C@H](OC)[C@]3(CCCO3)C2)ccc1F | -26.9% | 3.529% | -
CNCCNc1ccc(-c2nc(-c3cccc(OC)c3OC)no2)cn1 | -8.857% | 18.44% | -6.962%
CCN(C)c1ncnc2c1CCN(C(=O)c1ccsc1)CC2.O=C(O)C(F)(F)F | -23.87% | - | 11.3%
CNC(=O)c1ccc(-c2ccc(CNS(=O)(=O)N(C)C)cc2)nc1C | 11% | 10.48% | 9.16%
O=C(c1ncccn1)N1C[C@H]2CCC[C@@]2(COCC2CCOCC2)C1 | - | 15.82% | -
CN(CC(=O)N1CCN(c2ncccn2)CC1)c1ccc(Cl)cn1 | -0.1577% | 10.51% | -
O=C1CCC2(CCCN(c3ncnc4[nH]cnc34)C2)CN1CCCO (stereo not given) | -9.982% | 13.75% | 15.71%
COc1ccc(C(=O)N2C[C@@H](CN3CCOCC3)[C@@H](CO)C2)c(C)c1 | 0.006415% | 9.63% | -0.74%
O=C(N1CCOCC1)N1CCC(Nc2ccncn2)CC1 | -3.083% | 7.357% | -20.28%
CN(C)S(=O)(=O)N1CCCC(c2nccn2Cc2cccnc2)C1 (stereo not given) | 2.565% | 12.21% | 12.44%
COCCO[C@H]1CCN(c2cc(OC)ncn2)[C@H]1Cc1cnn(C)c1 | -12.59% | 17.81% | 5.93%
Cc1cc(N(C)Cc2ncc(-c3ccccc3C(=O)O)s2)ncn1 | -27.42% | 6.562% | -19.73%
N#Cc1cccc(S(=O)(=O)CCN2CCOC2=O)c1 | 14.1% | 20.77% | 19.37%
CCc1nc(C)cc(NC(C)C(=O)Nc2cc(F)ccc2C)n1 (stereo not given) | -7.594% | 13.06% | 17.76%
O=C(CCc1cc2n(n1)CCN(CCCn1cccc1)C2)N1CCCC1 | -1.988% | 14.44% | 19.73%
Cc1ccc(N2CCCC(N(C)Cc3nnc(C4CC4)o3)C2)nn1 (stereo not given) | 6.28% | 18.77% | -18.97%
Cc1cc2c(c(-c3c[nH]c(C)n3)c1)OC(CN)C2 (stereo not given) | 1.503% | 25.75% | -12.65%
CC(C)NC(=O)Cn1cc(OCc2ccc(F)cc2)c(=O)cc1CO | -1.388% | 9.48% | -37.8%
CC(C)c1noc(CS(=O)(=O)CC(=O)NCc2ccccc2)n1 | 49.68% | 12.57% | -
[H][C@@]12CC(=O)N(C)[C@@]1([H])CCN2S(=O)(=O)Cc1ccccc1 | 3.193% | - | 20.96%
CN(C)C(C(=O)NC1(CO)CCCC1)c1ccc(F)cc1 (stereo not given) | -16.48% | -0.7692% | -1.268%
COc1ncc(C2(O)CCN(Cc3ccccc3O)CC2)c(OC)n1 | 0.1191% | 12.94% | -
O=C(O)c1c(Cl)ncn1-c1ccccc1 | -6.059% | 14.64% | 19.93%
CCNC(c1ccc(CC)cc1)c1cccnc1 (stereo not given) | 1.205% | 13.68% | -41.16%
CN(CC1(CO)CCC1)C(=O)C1CCC(=O)N(Cc2ccc(Cl)cc2)C1 (stereo not given) | -5.107% | 16.84% | -
CC(C)c1cc(C(=O)N2CCOCC2CC(=O)c2ccco2)nn1C (stereo not given) | 9.498% | 19.72% | 19.16%
CCOCCCn1c(NC(=O)c2cnc(C)s2)nc2ccccc21 | -7.023% | 26.14% | -
O=C1N(c2ccsc2)CCC12CCCN(Cc1ccccn1)C2 (stereo not given) | - | 17.78% | -
O=C(c1nc(=O)[nH]c2ccccc12)N1CCCC(CC2CC2)(C(=O)O)C1 (stereo not given) | -2.616% | 24.01% | 14%
Cc1nc(C)n(CC2CCCN(c3ncnc4ccsc34)C2)n1 (stereo not given) | 56.12% | 14.38% | 51.96%
O=C(c1cc(F)ccc1O)N1CCN(C2CCOCC2)CC1 | 23.01% | 11.64% | 23.2%
COC(=O)[C@@H]1C[C@H](NC(=O)c2cc(=O)[nH]c3ccc(C)cc23)CN1C | 4.924% | 16.45% | -
CCOCC1CN(Cc2ccncc2)Cc2nn(C)cc21.O=C(O)C(F)(F)F.O=C(O)C(F)(F)F (stereo not given) | -27.64% | - | 12.3%
CCn1nc(C)c2c1cnn2CCNS(C)(=O)=O | 6.053% | 16.71% | 6.543%
CCOCCCNc1ncc(-c2onc(C)c2C)c(-c2ccco2)n1 | 10.78% | 4.361% | 25.28%
Cc1nc(CN2CCc3ncnc(-c4ccsc4)c3CC2)cs1 | - | 17.46% | -
[H][C@]12CC[C@]([H])(CN(S(=O)(=O)c3cc(-n4cccn4)ccc3C)C1)N(C)C2 | 23.12% | - | 14.95%
CN(Cc1cc2n(n1)CCCNC2)Cc1n[nH]c2c1CCC2 | 4.005% | 19.24% | 27.98%
O=S(=O)(c1cc(F)ccc1F)n1cc(Cl)cn1 | 18.26% | 9.309% | 15%
O=C(O)C(F)(F)F.O=C(O)C(F)(F)F.O=C1N(c2cccnc2)CCC12CCCN(Cc1ccco1)C2 (stereo not given) | -19.55% | - | 15.85%
CN(Cc1ccon1)C(=O)C1CC(=O)N(Cc2ccncc2)C1 (stereo not given) | 6.099% | 17.47% | 11.39%
CC(C)CC(CCO)CNC(=O)N1CC(C)(C)C1(C)C (stereo not given) | -13.46% | 11.87% | 13.16%
Cc1cc(=O)[nH]c(SC(C)C(=O)N2CCC(c3ncc[nH]3)CC2)n1 (stereo not given) | -16.01% | 13.17% | -8.244%
CC1CCC(N2Cc3nc(N)ncc3C2=O)CC1 (stereo not given) | 7.341% | -6.281% | -
CCn1ccnc1CN1CCCN(C(=O)COC2CCCC2)CC1 | -11.42% | 11.75% | -24.49%
CN(C)c1cc(C2CCN(C(=O)c3cnn(C)c3)CC2)ccn1 | -0.1916% | 8.385% | 5.809%
Cc1nc(NCCc2ccc(Cl)cc2)cc(C(=O)N2CCCCC2)n1 | -8.534% | 1.575% | -19.77%
Cc1nc(C2CCCN(C(=O)c3cnn(C4CCCCC4)c3)C2)no1 (stereo not given) | -31.08% | 15.85% | -
O=C(O)C(F)(F)F.O=C(O)C(F)(F)F.[H][C@@]12CCC(=O)N(c3ccccc3)[C@]1([H])CCN2Cc1ccncc1 | -17.31% | - | 10.97%

8 of the entries, repeated:

| structure | Mtb heat-shock | LdMetRS | Mtb growth Cornell |
|---|---|---|---|
| `CNC(=O)c1ccc(-c2ccc(CNS(=O)(=O)N(C)C)cc2)nc1C` | 11% | 10.48% | 9.16% |
| `O=C1CCC2(CCCN(c3ncnc4[nH]cnc34)C2)CN1CCCO` (stereo not given) | -9.982% | 13.75% | 15.71% |
| `COc1ccc(C(=O)N2C[C@@H](CN3CCOCC3)[C@@H](CO)C2)c(C)c1` | 0.006415% | 9.63% | -0.74% |
| `COCCO[C@H]1CCN(c2cc(OC)ncn2)[C@H]1Cc1cnn(C)c1` | -12.59% | 17.81% | 5.93% |
| `CCNC(c1ccc(CC)cc1)c1cccnc1` (stereo not given) | 1.205% | 13.68% | -41.16% |
| `CC1CCC(N2Cc3nc(N)ncc3C2=O)CC1` (stereo not given) | 7.341% | -6.281% | - |
| `O=S(=O)(c1cc(F)ccc1F)n1cc(Cl)cn1` | 18.26% | 9.309% | 15% |
| `[H][C@@]12CC(=O)N(C)[C@@]1([H])CCN2S(=O)(=O)Cc1ccccc1` | 3.193% | - | 20.96% |